Reference: PubChem BioAssay AID493014 (National Center for Advancing Translational Sciences (NCATS), 2011)
The list shows a part of the results. Further columns of the screen follow, without active or inactive calls. Compounds called inactive in the main read-out are mostly missing here. The note in brackets gives the kind of curve behind each potency; many fits are weak.

Experiment: qHTS Assay to Find Inhibitors of Chronic Active B-Cell Receptor Signaling
Settings: ABC-DLBCL IkBa-CBG/CBR reporter, luminescence ratio (green luciferase fused to IkBa over red control in TMD8 lymphoma cells), 4 h
Procedure, shortened: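 Doxycycline induced both beetle luciferases in TMD8 lymphoma cells; IKK-driven degradation limits the IkappaBalpha-fused green signal, while red luminescence normalises for cell number and nonspecific effects. Compounds tested up to 46 uM, 4 hrs.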

[1] = measured here: CBR red luminescence, cell number
[2] = measured here: IkBa-CBG green luminescence

| Compound | AC50 [1] | AC50 [2] |
| --- | --- | --- |
| CC(CCc1ccc(O)cc1)NC(c1ccccc1)c1ccc(Cl)cc1 (configuration not stated) | 25.1 µM [falling, single point] | – |
| CC(=O)N(\C=C/C=C/C=C1\Sc2ccccc2C1=O)c1ccccc1 | 2.24 µM [falling, full curve, poor fit] | – |
| COc1ccc(C)c2sc(N(CCCN(C)C)C(=O)c3ccc(S(=O)(=O)N(C)C)cc3)nc12 | 11.2 µM [falling, partial curve, poor fit] | – |
| COc1cccc2cc(/C(=N/O)c3ccccc3)oc12 | 35.5 µM [falling, single point] | – |
| O=C1CCC([N+](=O)[O-])C(c2cccc(Cl)c2Cl)N1 (configuration not stated) | 32.6 µM [falling, single point] | – |
| Cc1ccc(/C=N/n2c(C3CCCCC3)n[nH]c2=S)o1 | 5.8 µM [rising, partial curve, poor fit] | – |
| CC(C)C(C(=O)NCc1ccco1)N(Cc1ccco1)C(=O)CNS(=O)(=O)c1ccc(F)cc1 (configuration not stated) | 25.1 µM [falling, single point] | – |
| CCC1Oc2ccc(C)cc2N(CC(=O)N(Cc2cccnc2)Cc2ccc(C)o2)C1=O (configuration not stated) | 0.82 µM [falling, full curve, poor fit] | – |
| CCOC(=O)c1cccc(NC(=O)/C=C/c2ccc([N+](=O)[O-])cc2)c1 | 6.51 µM [falling, partial curve] | – |
| CCCOc1ccc(NC(=O)C2CC(=O)N3CCCN=C3S2)cc1 (configuration not stated) | 0.651 µM [falling, full curve] | – |
| CC(C)c1nc(SCC(=O)Nc2nc3c(s2)CCCC3)c2ccccc2n1 | 29.1 µM [falling, single point] | – |
| CCOc1cc(C(=O)N/N=C/C(Br)=C/c2ccccc2)cc(OCC)c1OCC | 5.8 µM [rising, full curve] | 7.31 µM [falling, partial curve] |
| CN1CCN(C(=O)C2CCC(CNS(=O)(=O)c3cccc4cccnc34)CC2)CC1 (configuration not stated) | 29.1 µM [rising, single point] | – |
| CCOC(=O)c1cc(-c2ccc(F)cc2)n(CCC(=O)NCc2ccc(C)cc2)c1C | 3.16 µM [rising, partial curve, poor fit] | – |
| Nn1c(C2CCC2)nc2cc(Cl)ccc2c1=O | 12.6 µM [rising, partial curve] | – |
| N#CCCN(C(=O)COC(=O)c1ccc(S(=O)(=O)N2CCCC2)cc1)c1cccc(Cl)c1 | 4.11 µM [rising, full curve, poor fit] | – |
| O=C(/C=C/c1cccc(Br)c1)NC1CCN(Cc2ccccc2)CC1 | 35.5 µM [falling, single point] | – |
| CNC(=S)N/N=C/c1cc(Br)c(OCc2ccncc2)c(OC)c1 | 15.8 µM [rising, single point] | 12.6 µM [falling, single point] |
| COc1ccc(C(=O)C(CCCCC(CN(C)C)C(=O)c2ccc(OC)cc2)CN(C)C)cc1 (configuration not stated) | 12.6 µM [falling, partial curve] | – |
| O=C1c2ccccc2C(=O)N1CCc1c[nH]c2ccc(O)cc12 | 20 µM [falling, single point] | – |
| CCOC(=O)NC1(Nc2cccc(Cl)c2)Oc2ccccc2O1 | 3.26 µM [rising, single point] | – |

| Compound | AC50 [1] | AC50 [2] |
| --- | --- | --- |
| Fc1ccc(N2N=C(c3cccs3)CC2c2ccccc2)cc1 (configuration not stated) | 7.08 µM [rising, partial curve] | – |
| O=C(Nc1ccnn1C1CCN(C2CCCC2)CC1)c1ccccc1 | 35.5 µM [falling, single point] | – |
| O=C(CCCCl)NC1=NN(c2ccccc2)C(=O)C1 | 29.1 µM [falling, single point] | – |
| CC(C)(C)c1ccc(S(=O)(=O)NCc2ccc(C(=O)N3CCCC3)cc2)cc1 | 29.1 µM [falling, single point] | – |
| O=C(N/N=C/c1ccc(N2CCOCC2)s1)c1ccc(NS(=O)(=O)c2cccs2)cc1 | 11.2 µM [falling, partial curve, poor fit] | – |
| O=C(Nc1ccc(S(=O)(=O)N2CCCC2)cc1)N1c2ccccc2Sc2ccccc21 | 3.55 µM [rising, partial curve, poor fit] | – |
| Cc1onc(-c2c(Cl)cccc2Cl)c1C(=O)NCC1CCCO1 (configuration not stated) | 0.731 µM [rising, full curve, poor fit] | – |
| COc1ccc(NC(=O)c2nn(C)c(C(=O)Nc3ccc(OC)cc3)c2[N+](=O)[O-])cc1 | 25.1 µM [rising, single point] | – |
| Cc1ccc(NC(=O)CSc2nnc(-c3ccco3)o2)cc1 | 6.31 µM [rising, single point] | – |
| Clc1ccc(Cc2noc(Cc3ccccc3)n2)cc1Cl | 20.6 µM [rising, partial curve, poor fit] | – |
| O=S1(=O)[C@H]2C[C@H](CO)O[C@@]2(CO)CN1Cc1ccc(-c2cccc(Cl)c2)cc1 | 0.259 µM [rising, full curve, poor fit] | 0.82 µM [falling, partial curve] |
| CC(=O)Oc1ccc(C(=O)NCCc2ccccc2)cc1 | 7.94 µM [falling, partial curve, poor fit] | – |
| CCNC(=S)N/N=C/c1ccc(OCC(=O)Nc2ccc(OC)cc2)c(OC)c1 | 4.11 µM [rising, full curve] | – |
| Cc1ccc2c(c1)sc1nc(=O)n(-c3cccc(Cl)c3)c(=O)n12 | 1.26 µM [rising, full curve, poor fit] | – |
| COc1ccc(-c2noc(C3CCCN(C(=O)Nc4ccccc4F)C3)n2)cc1 (configuration not stated) | 35.5 µM [falling, single point] | – |
| Cc1[nH]n(-c2ccccc2)c(=O)c1N=Nc1cccc(C(=O)O)c1 | 0.631 µM [falling, full curve] | – |
| O=C(CN(Cc1ccccc1Cl)C(=O)Cn1nnc(-c2cccs2)n1)NCC1CCCO1 (configuration not stated) | 10 µM [rising, partial curve, poor fit] | – |
| CC(C)c1ccc(Nc2nnc(SC3CCOC3=O)s2)cc1 (configuration not stated) | 5.8 µM [rising, single point] | – |
| N#Cc1cnc2sc3ccccc3n2c1=N | 29.1 µM [falling, single point] | – |
| COc1ccc(N(CC(=O)N/N=C/c2ccc(F)cc2)S(=O)(=O)c2ccccc2)cc1 | 11.2 µM [falling, single point] | – |
| CN1CCN(C(=O)c2ccc(-c3ccc(Br)cc3)o2)CC1 | 0.184 µM [rising, full curve, poor fit] | – |

Sorted by length of the SMILES (low to high): 14 of the compounds above

| Compound | AC50 [1] | AC50 [2] |
| --- | --- | --- |
| N#Cc1cnc2sc3ccccc3n2c1=N | 29.1 µM [falling, single point] | – |
| O=C(CCCCl)NC1=NN(c2ccccc2)C(=O)C1 | 29.1 µM [falling, single point] | – |
| CC(C)c1ccc(Nc2nnc(SC3CCOC3=O)s2)cc1 (configuration not stated) | 5.8 µM [rising, single point] | – |
| Cc1ccc(NC(=O)CSc2nnc(-c3ccco3)o2)cc1 | 6.31 µM [rising, single point] | – |
| CN1CCN(C(=O)c2ccc(-c3ccc(Br)cc3)o2)CC1 | 0.184 µM [rising, full curve, poor fit] | – |
| Cc1onc(-c2c(Cl)cccc2Cl)c1C(=O)NCC1CCCO1 (configuration not stated) | 0.731 µM [rising, full curve, poor fit] | – |
| Cc1[nH]n(-c2ccccc2)c(=O)c1N=Nc1cccc(C(=O)O)c1 | 0.631 µM [falling, full curve] | – |
| COc1ccc(-c2noc(C3CCCN(C(=O)Nc4ccccc4F)C3)n2)cc1 (configuration not stated) | 35.5 µM [falling, single point] | – |
| CCNC(=S)N/N=C/c1ccc(OCC(=O)Nc2ccc(OC)cc2)c(OC)c1 | 4.11 µM [rising, full curve] | – |
| CC(C)(C)c1ccc(S(=O)(=O)NCc2ccc(C(=O)N3CCCC3)cc2)cc1 | 29.1 µM [falling, single point] | – |
| O=C(CN(Cc1ccccc1Cl)C(=O)Cn1nnc(-c2cccs2)n1)NCC1CCCO1 (configuration not stated) | 10 µM [rising, partial curve, poor fit] | – |
| O=C(N/N=C/c1ccc(N2CCOCC2)s1)c1ccc(NS(=O)(=O)c2cccs2)cc1 | 11.2 µM [falling, partial curve, poor fit] | – |
| COc1ccc(NC(=O)c2nn(C)c(C(=O)Nc3ccc(OC)cc3)c2[N+](=O)[O-])cc1 | 25.1 µM [rising, single point] | – |
| O=S1(=O)[C@H]2C[C@H](CO)O[C@@]2(CO)CN1Cc1ccc(-c2cccc(Cl)c2)cc1 | 0.259 µM [rising, full curve, poor fit] | 0.82 µM [falling, partial curve] |

Arranged by SMILES length (rising): part of the list above

| Compound | AC50 [1] | AC50 [2] |
| --- | --- | --- |
| O=C(CCCCl)NC1=NN(c2ccccc2)C(=O)C1 | 29.1 µM [falling, single point] | – |
| CC(C)(C)c1ccc(S(=O)(=O)NCc2ccc(C(=O)N3CCCC3)cc2)cc1 | 29.1 µM [falling, single point] | – |
| O=C(Nc1ccc(S(=O)(=O)N2CCCC2)cc1)N1c2ccccc2Sc2ccccc21 | 3.55 µM [rising, partial curve, poor fit] | – |

Carrying on.

| Compound | AC50 [1] | AC50 [2] |
| --- | --- | --- |
| CCCNC(=O)Cn1nc(C(F)(F)F)c2c1CCCC2 | 18.4 µM [falling, single point] | – |
| CC(=O)c1cc2c(=O)c3cc(C)ccc3oc2nc1C | 1.84 µM [rising, full curve, poor fit] | – |
| Clc1ccc(OCCn2c(-c3ccco3)nc3ccccc32)cc1 | 23.1 µM [falling, single point] | – |
| CC(C)C(=O)NC(=S)N1CCc2ccccc21 | 0.651 µM [falling, partial curve, poor fit] | – |
| COc1ccc(-c2cc(C(=O)N3CCCCCC3)no2)cc1 | 31.6 µM [falling, single point] | – |
| Cc1ccc(NC(=O)Nc2ccc3c(c2)CCC3)cc1C | 0.708 µM [rising, full curve, poor fit] | – |
| COc1ccc(-c2cn[nH]c2-c2ccc(OCc3ccccc3F)cc2O)cc1OC | 14.1 µM [falling, single point] | – |
| O=S(=O)(NCc1ccc(Cl)cc1)NCc1ccccc1F | 11.2 µM [rising, single point] | – |
| O=C(C(=O)N1CCCc2ccccc21)c1c[nH]c2ccccc12 | 10 µM [falling, partial curve] | – |
| C/C(CC(=O)Nc1ccc(OCc2ccccc2)cc1)=N\NC(=O)C(=O)Nc1cccc(C)c1 | 16.4 µM [falling, partial curve, poor fit] | – |
| O=C(NCc1ccccc1Cl)C1CCC(CNc2nc(=S)[nH]c3ccccc23)CC1 (configuration not stated) | 10 µM [rising, partial curve, poor fit] | – |
| Cc1ccc2nc(CSc3nnc(Nc4ccccc4F)s3)cc(=O)n2c1 | 3.66 µM [falling, full curve] | – |
| Cc1nnc(SCC(=O)Nc2cc(C(F)(F)F)ccc2N2CCOCC2)o1 | 0.731 µM [falling, full curve] | 0.82 µM [rising, full curve, poor fit] |
| COc1ccc2cc(C(=O)N3CCN(C)CC3)[nH]c2c1 | 17.8 µM [falling, single point] | – |
| COc1ccc(C(=O)c2cnc(C(C)C)n2C)cc1 | 6.51 µM [rising, partial curve, poor fit] | – |
| CCc1nnc(NC(=O)c2ccc(Cl)nc2)s1 | 10 µM [falling, partial curve, poor fit] | – |
| COc1ccc2[nH]cc(C(=O)CN3CCCC(C)(C)C3)c2c1 | 8.91 µM [falling, single point] | – |
| Cc1ccc(Cn2c(CN(C)Cc3ccccc3)nc3c2c(=O)n(C)c(=O)n3C)cc1 | 8.2 µM [falling, single point] | – |
| c1ccc(Cc2cc(-c3ccccc3)on2)cc1 | 1.84 µM [rising, full curve, poor fit] | – |
| O=C(COc1ccc([N+](=O)[O-])cc1)Nc1cc(C(=O)O)cc(C(=O)O)c1 | 11.2 µM [falling, partial curve, poor fit] | – |
| Cc1nn(Cc2c(F)c(F)c(F)c(F)c2F)c(C)c1NC(=O)c1ccc(COc2cc(Cl)ccc2Cl)cc1 | 3.98 µM [rising, full curve, poor fit] | – |
